Non-standard residues stand in square brackets, D forms with d. *: point of attachment. DOTA = O=C(O)CN1CCN(CC(=O)O)CCN(CC(=O)*)CCN(CC(=O)O)CC1; Dap = NC[C@H](N)C(=O)O
Experiment: general procedure: Fmoc solid-phase peptide synthesis; NH2-MBHA resin; HBTU/HOBt/DIPEA
Details: whole synthesis

Substance | isolated yield
DOTA-Gly-Cyclic(Dap-Glu-His-dPhe-Arg-Trp-Asp)-Arg-Pro-Val-CONH2 | Yield: 10%
DOTA-Gly-Dap-Glu-His-dPhe-Arg-Trp-Asp-Lys-Pro-Val-CONH2 | yield: 10%
DOTA-Gly-cyclic(Dap-Gln-His-dPhe-Arg-Trp-Asp)-Arg-Pro-Val-CONH2 | Yield: 10%
DOTA-Gly-cyclic(Dap-Gln-His-dPhe-Arg-Trp-Asp)-CONH2 | Yield: 10%
DOTA-Gly-cyclic(Dap-Gln-His-dPhe-Arg-Trp-Asp)-Lys-Pro-Val-CONH2 | Yield: 10%
DOTA-Gly-cyclic(Dap-Glu-His-dPhe-Arg-Trp-Asp)-CONH2 | yield: 10%
DOTA-Gly-cyclic(Dap-Glu-His-dPhe-Arg-Trp-Asp)-Lys-Pro-Val-CONH2 | yield: 10%
{DOTA}-G[Dap]EH[dF]RWD-NH2 | yield: 10%
{DOTA}-G[Dap]EH[dF]RWDRPV-NH2 | yield: 10%
{DOTA}-G[Dap]QH[dF]RWD-NH2 | Yield: 10%
{DOTA}-G[Dap]QH[dF]RWDKPV-NH2 | Yield: 10%
